Like-named read-outs stand apart in the source and are kept apart here.
Legend:
[1] = system: Huh7.5 cells; assay: Cell viability, CellTiter-Glo luminescent assay
[2] = system: DENV-R2A (Rluc-expressing DENV, serotype 2 strain 16681); assay: microbe, parasite or virus in culture; format: cell-based, Dengue virus; conditions: for activity at 50 µM: Dengue virus, Huh7.5, 48 h

SMILES: O=C(Nc1ccccc1)c1ccccc1 [Compound 66]
- Cell viability (Fold DMSO) ([1]; 6A1HI analogues, test concentration = 50 µM, Huh7.5 cells): 1.01 Fold DMSO
- Cell viability (Fold DMSO) ([1]; Table 1, NPP3C analogues, 50 μM, Huh7.5, 2 days): 0.88 fold DMSO
- Cell viability (Fold DMSO) ([1]; Table S3, NPP3C analogues, 50 µM, Huh7.5): 0.88 Fold DMSO
- activity at 50 µM ([2]; read-out: DENV-R2A replication (Fold DMSO), 6A1HI analogues, test concentration = 50 µM, Huh7.5 cells): 83%
- activity at 50 µM ([2]; read-out: DENV-R2A replication (fold DMSO), Table 1, NPP3C analogues, 50 μM, Huh7.5, 2 days postinfection): 134%
- antiviral activity against DENV-R2A (SAR, in words) ([2]; NPP3C analogues, 50 μM): abrogated the antiviral activity

— publication PMC9933715 (Antimicrobial Agents and Chemotherapy, 2023)
